Assay results: PMC12040169 (PLOS Biology, 2025)
The list shows a part of the results.

Test system: T1, CTL2-GFP (C. trachomatis L2/434/Bu, GFP-expressing)
T1 construct: L2/434/Bu, GFP-expressing
Set-up: species or system HeLa; Intracellular C. trachomatis growth in HeLa cells, bulk GFP fluorescence relative to DMSO
Conditions: bulk GFP, single well; 28.5 h, 10 µM; inhibitor

Structure (SMILES)	% of control remaining
O=S(=O)(c1ccccc1)N1CCN(c2cnccn2)CC1 [CBK287839]	108.05%
COc1ccc(CN2C(=O)COC[C@@H]2[C@H](O)c2ccc(NC(C)=O)cc2)cc1 [CBK289674]	144.086%
CCC1C(=O)NCCN1C(=O)c1ccc2c(c1)ncn2C (stereo not shown) [CBK281709]	134.695%
Cc1ccn2cc(CNC(=O)CN3CCOc4ccccc4C3)nc2c1 [CBK307518]	115.226%
S=C(Nc1cccnc1)N[C@H]1CC[C@@]2(c3cccnc3)CCN(Cc3ccccc3)[C@H]2C1 [CBK028450]	100.761%
Cc1cc2c(s1)c1cnn(CC(=O)NCC3CC3)c(=O)c1n2C [CBK284222]	147.664%
Cn1nc(C(F)(F)F)cc1C1CCCCCN1S(C)(=O)=O (stereo not shown) [CBK284673]	125.997%
CS(=O)(=O)Nc1cc2ccccc2c(-c2cccc(C(F)(F)F)c2)n1 [CBK085754]	110.937%
Clc1ccc(COc2nccnc2OC2CCN(Cc3ccc4c(c3)OCO4)CC2)cc1Cl [CBK083109T]	89.4821%
CCOC(=O)Cn1nc([N+](=O)[O-])c(Cl)c1C [CBK269605]	126.318%
CC(NC(=O)CN(c1ccc(Cl)c(Cl)c1)S(=O)(=O)c1ccccc1)c1ccccc1 (stereo not shown) [CBK263781]	133.078%
COc1ccc(NC(=O)N[C@H]2C[C@@H](c3nc(-c4ccc(OC)cc4)no3)N(C)C2)cc1 [CBK288862]	146.112%
N=C1NC(=O)/C(=C/c2ccc(OS(=O)(=O)c3ccc4ccccc4c3)cc2)S1 [CBK263605]	106.101%
CN1C[C@]2(CC[C@@H](C(=O)N3CCCC3)CC2)Oc2ccccc2C1=O [CBK284886]	131.109%
CC(NC1CCN(Cc2ccccc2)CC1)C12CC3CC(CC(c4ccc(Cl)cc4)(C3)C1)C2 (stereo not shown) [CBK262877]	95.9193%
Cc1ccnn1C(C)C(=O)NC(Cc1ccsc1)c1nccs1 (stereo not shown) [CBK285141]	113.809%
O=C(O)CCc1nn2c3ccccc3n(CC(=O)c3cccs3)c2nc1=O [CBK267518]	134.4%
CC(C)(C)OC(=O)NCC(N)=S [CBK007979]	117.493%
C=Cn1cc(CN2C3CCC2CC(O)(c2ccc(C)cc2)C3)c(C)n1 (stereo not shown) [CBK283015]	114.858%
O=C(O)c1cccc2c1C(=O)N(Cc1cccs1)C2 [CBK291246]	149.406%
COC(=O)CN(c1ccc(Cl)cc1Cl)S(C)(=O)=O [CBK267654]	95.1019%
O=C(Nc1ccccc1C(=O)N1CCN(Cc2ccccc2)CC1)c1ccccn1 [CBK263512]	109.308%
COCCN(Cc1ccncc1)C(=O)c1cnc2ccnn2c1C [CBK306965]	125.173%
O=C(Nc1ccccc1C(=O)O)c1ccccc1O [CBK012116]	66.262%
O=c1[nH]c(SCc2c(Cl)cccc2Cl)nc2ccnn12 [CBK116145]	106.412%

Structure (SMILES)	% of control remaining
COc1cc(C2N(Cc3ccccc3)CCCN2Cc2ccccc2)c([N+](=O)[O-])cc1OC [CBK265224]	119.706%
CCC(Cn1ccnc1)NS(=O)(=O)c1cc(-n2cccn2)ccc1OC (stereo not shown) [CBK307483]	126.756%
Cc1ccc(S(=O)(=O)Nc2c(C(=O)N3CCN(C)CC3)sc3ncccc23)cc1[N+](=O)[O-] [CBK050025]	132.963%
CC(NC(=O)Cn1c(-c2nonc2N)nc2ccccc21)c1ccccc1 (stereo not shown) [CBK266006]	159.613%
Cc1ccc(Cl)cc1NC(=O)c1ccc(NCCN2C(=O)C3C4C=CC(C4)C3C2=O)c([N+](=O)[O-])c1 (stereo not shown) [CBK268357]	154.616%
COc1ccccc1-c1nccnc1N(C)Cc1ccccc1 [CBK036774]	176.376%
CNC(=O)C1(Cc2ccccc2-c2cccs2)CCN(C(=O)Cc2ccccc2)CC1 [CBK285746]	130.544%
O=C(C1=C(O)C(=O)N(Cc2cccnc2)C1c1cccnc1)c1ccccc1 (stereo not shown) [CBK264522]	126.176%
Cc1ccc(C(=O)Nc2nc3ccc(S(=O)(=O)N(C)C)cc3s2)cc1 [CBK287603]	136.499%
Cc1cc(NC(=O)CCCc2ccccc2)nc2c1c(=O)oc1ccccc12 [CBK291204]	84.3118%
COC(=O)c1c(NC(=S)NCc2ccc(S(N)(=O)=O)cc2)sc2c1CCC(C)C2 (stereo not shown) [CBK267039]	148.651%
CC(C)(C)C(=O)Nc1ccc(-c2nc3ccc(Cc4ccc5nc(-c6ccc(NC(=O)C(C)(C)C)cc6)oc(=O)c5c4)cc3c(=O)o2)cc1 [CBK261396]	102.061%
CCc1nc2c(OCc3ccccc3OC)cccn2c1N(C)C(=O)C(C)C [CBK147763]	93.9236%
CCNC(=O)O[C@@H]1CO[C@H]2[C@@H]1OC[C@@H]2NS(=O)(=O)c1ccccc1C#N [CBK289474]	135.181%
CC(=O)Cc1c(C(=O)O)c(C)nn1-c1ccccc1 [CBK286779]	127.112%
COc1ccc(OC(C)C(=O)Nc2ccccc2-c2ccccc2)cc1 (stereo not shown) [CBK266661]	93.9685%
N#CCCSCc1ccc(C(=O)O)o1 [CBK265858]	101.519%
Cc1nc(N)sc1-c1csc(Nc2ncccn2)n1 [CBK263307B]	89.756%
CC(N)C(=O)Nc1ccccc1-c1ccccc1 (stereo not shown) [CBK267700]	131.625%
COC(=O)c1ccc(NC(=O)c2ccc(-n3cccn3)cc2)cc1 [CBK269486]	127.826%
CC(=O)c1cc(C(=O)N2CCC(O)(c3cccc(C)c3)CC2)cs1 [CBK282531]	114.604%
COc1ccc(C(NC(=O)c2cc3ccccc3[nH]2)C2CC2)cc1 (stereo not shown) [CBK297896]	114.444%
O=C(CCN1CCCCC1)N1CCc2ccccc21 [CBK200413]	117.75%
Cn1ccnc1C1(O)CCN(C(=O)Nc2ccc(F)cc2)CC1 [CBK282277]	138.925%

Some values from the results shown.
% of control remaining, Cc1ccn2cc(CNC(=O)CN3CCOc4ccccc4C3)nc2c1 [CBK307518] is entered as 115.226%
% of control remaining, CC(=O)c1cc(C(=O)N2CCC(O)(c3cccc(C)c3)CC2)cs1 [CBK282531] is entered as 114.604%
% of control remaining, O=S(=O)(c1ccccc1)N1CCN(c2cnccn2)CC1 [CBK287839] is entered as 108.05%
% of control remaining, O=c1[nH]c(SCc2c(Cl)cccc2Cl)nc2ccnn12 [CBK116145] is entered as 106.412%
